Measurements: article PMC5133637
Results are given in words; binding and its absence hold for the method and conditions named. In cells and extracts the contact can be indirect. Binding calls can cover weak binding; strength is not graded here. Tags and fused reporters may be left off the sequences shown.

By UniProt entry, the sequences of proteins in these tests, tags left out. Where a name states a change or a piece, a line headed by the entry shows the natural chain unless it says otherwise.
UniProt Q9QZL6: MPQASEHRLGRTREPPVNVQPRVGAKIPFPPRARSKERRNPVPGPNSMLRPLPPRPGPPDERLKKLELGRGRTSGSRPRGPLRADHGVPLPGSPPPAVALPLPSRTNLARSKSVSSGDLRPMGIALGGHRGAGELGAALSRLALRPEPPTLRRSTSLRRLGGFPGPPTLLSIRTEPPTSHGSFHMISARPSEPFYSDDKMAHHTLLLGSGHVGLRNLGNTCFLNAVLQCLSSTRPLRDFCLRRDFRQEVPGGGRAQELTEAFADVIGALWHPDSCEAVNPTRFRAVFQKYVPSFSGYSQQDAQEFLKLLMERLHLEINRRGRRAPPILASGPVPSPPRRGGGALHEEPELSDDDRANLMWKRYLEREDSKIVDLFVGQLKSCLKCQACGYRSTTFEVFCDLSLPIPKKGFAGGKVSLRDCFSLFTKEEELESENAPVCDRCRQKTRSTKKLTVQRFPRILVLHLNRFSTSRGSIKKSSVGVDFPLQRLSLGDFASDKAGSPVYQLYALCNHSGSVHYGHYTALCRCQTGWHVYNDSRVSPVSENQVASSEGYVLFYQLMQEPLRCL

Experiments:
Assay in all cases: co-IP; transfected HEK293T cells; lysis in 50 mM Tris-Cl pH 7.4, 0.5% NP-40, 150 mM NaCl, 1 mM EDTA; HA-conjugated beads or M2 (anti-Flag) beads 2-3 h; western blot; in some panels cells treated with EGF with or without SCH772984, or co-expressing MEK1^CA and ERK1
HA-Nanog (mouse) = molecular target: T1, HA-Nanog (mouse) (UniProt Q80Z64)
T1 sequence: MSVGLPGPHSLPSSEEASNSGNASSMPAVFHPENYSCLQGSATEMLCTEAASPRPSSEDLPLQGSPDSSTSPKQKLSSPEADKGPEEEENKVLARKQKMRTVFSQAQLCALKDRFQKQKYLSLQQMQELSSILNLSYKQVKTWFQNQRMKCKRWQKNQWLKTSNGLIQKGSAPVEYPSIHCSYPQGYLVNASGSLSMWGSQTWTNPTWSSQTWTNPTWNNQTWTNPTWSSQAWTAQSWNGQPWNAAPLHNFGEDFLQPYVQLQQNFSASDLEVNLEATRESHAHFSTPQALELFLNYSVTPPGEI

USP21 S93D (mouse) = USP21 S93D (mouse) (UniProt Q9QZL6)
USP21 S335D (mouse) = USP21 S335D (mouse) (UniProt Q9QZL6)
Flag-USP21 S539A (mouse) = Flag-USP21 S539A (mouse) (UniProt Q9QZL6)
Flag-USP21-SV (mouse) = molecular target: Flag-USP21-SV (mouse)
[1] = molecular target: USP21 C-terminal UCH (catalytic domain) (mouse)

Measured: binding

Flag-USP21-SV (mouse) (enzyme)
binds: HA-Nanog (mouse)

B1: HA-Nanog (protein, UniProt Q80Z64 1-305)
chain: MSVGLPGPHSLPSSEEASNSGNASSMPAVFHPENYSCLQGSATEMLCTEAASPRPSSEDLPLQGSPDSSTSPKQKLSSPEADKGPEEEENKVLARKQKMRTVFSQAQLCALKDRFQKQKYLSLQQMQELSSILNLSYKQVKTWFQNQRMKCKRWQKNQWLKTSNGLIQKGSAPVEYPSIHCSYPQGYLVNASGSLSMWGSQTWTNPTWSSQTWTNPTWNNQTWTNPTWSSQAWTAQSWNGQPWNAAPLHNFGEDFLQPYVQLQQNFSASDLEVNLEATRESHAHFSTPQALELFLNYSVTPPGEI
not listed: HA-Nanog (mouse)
binds: all other assays above
